Data as given in PubChem BioAssay AID652243 (Drosophila RNAi Screening Center, 2013)

- Assay: 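Fly genes required for human androgen receptor driven transcription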 (primary screen)
- Cell system: Drosophila S2R+ cells
- Knock-down reagent: long dsRNA against Drosophila genes
- Duration: 72 h (48 h, then 24 h hormone)
- Conditions: synthetic androgen R1881 at 10 nM for 24 h
- Read-out: 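Firefly light from an androgen-responsive reporter and Renilla control light per well, raw and unnormalised, for each of two replicates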
- Scale: firefly reporter light: higher = more light from androgen-responsive reporter; Renilla control light: higher = more constitutive control signal (cell number, transfection)
- Rule for the call: 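Across duplicate plates, a knock-down whose log firefly/Renilla ratio shifted a set fold down or up from the GFP/LacZ control mean was a hit; the downward cut appears as both 1.5 and 3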
- Meaning of the calls: active = hit: reporter lowered or raised; inactive = no hit
The deposit covers about 24,000 reagents; below is a random part of those with a known target gene and a result. Over the whole deposit, 246 (1%) were called active. 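Plates not normalised; calls are printed but the firefly/Renilla ratio behind them is not deposited; fold cut for lowering reported inconsistently.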 The raw values are shown without normalisation. Reagents against one gene are numbered here. A plus sign joins genes that one reagent is predicted to hit. Not given: the amount of reagent.

| gene knocked down | reagent | firefly reporter light, replicate 1 | firefly reporter light, replicate 2 | Renilla control light, replicate 1 | Renilla control light, replicate 2 | Outcome |
| --- | --- | --- | --- | --- | --- | --- |
| Rh50 | 1 | 6.50e5 | 9.04e5 | 1.04e6 | 1.67e6 | inactive |
| Hsepi | 1 | 3.81e5 | 3.67e5 | 2.38e6 | 2.30e6 | inactive |
| Hsepi | 2 | 3.07e5 | 3.46e5 | 6.24e5 | 6.82e5 | inactive |
| CG14354 | 1 | 1.11e5 | 1.31e5 | 1.91e6 | 1.66e6 | inactive |
| Nrg | 1 | 6.16e5 | 8.51e5 | 1.77e6 | 1.99e6 | inactive |
| Nrg | 2 | 92821 | 1.12e5 | 7.91e5 | 5.13e5 | inactive |
| Nrg | 3 | 2.02e5 | 2.83e5 | 3.05e5 | 7.57e5 | inactive |
| CG4629 | 1 | 1.67e5 | 1.26e5 | 1.14e6 | 1.12e6 | inactive |
| CG4629 | 2 | 9.26e5 | 4.02e5 | 2.10e6 | 9.57e5 | inactive |
| CG4629 | 3 | – | – | – | – | inactive |
| CG14565 | 1 | 3.51e5 | 2.94e5 | 3.41e6 | 3.27e6 | inactive |
| CG14565 | 2 | 5.05e5 | 3.69e5 | 6.91e5 | 6.59e5 | inactive |
| CG5897 | 1 | 2.52e5 | 2.12e5 | 2.19e6 | 1.72e6 | inactive |
| CG9175 | 1 | 4.55e5 | 6.53e5 | 1.95e6 | 1.65e6 | inactive |
| Hs6st | 1 | 3.78e5 | 4.13e5 | 4.49e6 | 4.59e6 | inactive |
| Hs6st | 2 | 2.59e5 | 1.94e5 | 3.53e6 | 3.41e6 | inactive |
| Hs6st | 3 | 3.06e5 | 3.04e5 | 2.76e6 | 2.36e6 | inactive |
| Hs6st | 4 | 6.13e5 | 6.22e5 | 4.13e6 | 5.23e6 | inactive |
| CkIalpha | 1 | 3.86e5 | 4.20e5 | 1.46e6 | 1.35e6 | active |
| CkIalpha | 2 | 5.62e5 | 6.03e5 | 9.04e5 | 9.15e5 | inactive |
| CkIalpha | 3 | 1.37e6 | 9.03e5 | 1.86e6 | 1.53e6 | inactive |
| CkIalpha | 4 | 5.97e5 | 3.88e5 | 3.02e5 | 3.94e5 | active |
| CG7724 | 1 | 52630 | 16992 | 3.13e5 | 2.48e5 | inactive |
| Pdf | 1 | 4.33e5 | 3.14e5 | 2.72e6 | 3.00e6 | inactive |
| Echs1 | 1 | 99498 | 96470 | 2.39e6 | 2.39e6 | inactive |
| CG9304 | 1 | 1.89e5 | 1.69e5 | 1.17e6 | 9.70e5 | inactive |
| CG9304 | 2 | 4.83e5 | 3.43e5 | 4.90e5 | 5.30e5 | inactive |
| CG43996 + CG43997 | 1 | 2.34e5 | 3.21e5 | 2.80e6 | 1.91e6 | inactive |
| CG43996 + CG43997 | 2 | 4.24e5 | 4.26e5 | 2.78e6 | 2.79e6 | inactive |
| flr | 1 | 1.06e6 | 8.32e5 | 1.43e6 | 1.89e6 | inactive |
| CG5773 | 1 | 2.44e5 | 4.38e5 | 1.98e6 | 1.98e6 | inactive |
| CG5773 | 2 | 8.11e5 | 5.32e5 | 1.25e6 | 1.43e6 | inactive |
| CG3919 | 1 | 8.36e5 | 5.09e5 | 2.27e6 | 2.33e6 | inactive |
| CG1575 | 1 | 53900 | 81009 | 2.30e5 | 3.51e5 | inactive |
| CG1575 | 2 | 4.86e5 | 3.24e5 | 4.54e5 | 4.17e5 | inactive |
| Cep135 | 1 | 2.18e5 | 72860 | 2.03e5 | 90784 | inactive |
| Cep135 | 2 | 1.08e6 | 1.01e6 | 2.05e6 | 1.62e6 | inactive |
| Cnb | 1 | 1.04e6 | 8.15e5 | 1.37e6 | 1.16e6 | inactive |
| puc | 1 | 85027 | 1.56e5 | 1.83e6 | 2.26e6 | inactive |
| puc | 2 | 2.49e5 | 3.30e5 | 6.99e5 | 6.81e5 | inactive |
| puc | 3 | – | – | – | – | inactive |
| CG1492 | 1 | 3.78e5 | 3.80e5 | 8.65e5 | 7.33e5 | inactive |
| CG8401 | 1 | 1.10e6 | 8.86e5 | 2.41e6 | 2.10e6 | inactive |
| Ho | 1 | 87619 | 66066 | 5.07e5 | 5.93e5 | inactive |
| PH4alphaPV | 1 | 5.11e5 | 6.46e5 | 1.57e6 | 2.05e6 | inactive |
| PH4alphaPV | 2 | 5.92e5 | 5.96e5 | 1.38e6 | 1.20e6 | inactive |
| CG10730 | 1 | 81761 | 89291 | 1.07e6 | 1.34e6 | inactive |
| CG10730 | 2 | 8.48e5 | 8.86e5 | 1.10e6 | 1.14e6 | inactive |
| CG8468 | 1 | 76718 | 1.12e5 | 1.48e6 | 1.48e6 | inactive |
| CG8468 | 2 | 3.78e5 | 3.28e5 | 6.72e5 | 7.02e5 | inactive |

Not a retest: an excerpt of the list.
| gene knocked down | reagent | firefly reporter light, replicate 1 | firefly reporter light, replicate 2 | Renilla control light, replicate 1 | Renilla control light, replicate 2 | Outcome |
| --- | --- | --- | --- | --- | --- | --- |
| flr | 1 | 1.06e6 | 8.32e5 | 1.43e6 | 1.89e6 | inactive |
| CG5773 | 1 | 2.44e5 | 4.38e5 | 1.98e6 | 1.98e6 | inactive |
| CG5773 | 2 | 8.11e5 | 5.32e5 | 1.25e6 | 1.43e6 | inactive |
| CG3919 | 1 | 8.36e5 | 5.09e5 | 2.27e6 | 2.33e6 | inactive |
| CG1575 | 1 | 53900 | 81009 | 2.30e5 | 3.51e5 | inactive |
| CG1575 | 2 | 4.86e5 | 3.24e5 | 4.54e5 | 4.17e5 | inactive |
| Cep135 | 1 | 2.18e5 | 72860 | 2.03e5 | 90784 | inactive |
| Cep135 | 2 | 1.08e6 | 1.01e6 | 2.05e6 | 1.62e6 | inactive |
| Cnb | 1 | 1.04e6 | 8.15e5 | 1.37e6 | 1.16e6 | inactive |
| puc | 1 | 85027 | 1.56e5 | 1.83e6 | 2.26e6 | inactive |
| puc | 2 | 2.49e5 | 3.30e5 | 6.99e5 | 6.81e5 | inactive |

The results go on.
| gene knocked down | reagent | firefly reporter light, replicate 1 | firefly reporter light, replicate 2 | Renilla control light, replicate 1 | Renilla control light, replicate 2 | Outcome |
| --- | --- | --- | --- | --- | --- | --- |
| Apl | 1 | 2.58e5 | 3.00e5 | 3.00e6 | 2.61e6 | inactive |
| CG5359 + Spn85F | 1 | 4.39e5 | 4.03e5 | 5.89e5 | 6.68e5 | inactive |
| Mst85C | 1 | 1.58e5 | 1.45e5 | 2.32e6 | 2.35e6 | inactive |
| Mst85C | 2 | 2.38e5 | 3.92e5 | 4.86e5 | 6.38e5 | inactive |
| CycD | 1 | 3.20e5 | 2.10e5 | 3.50e6 | 2.95e6 | inactive |
| CycD | 2 | 2.49e5 | 2.56e5 | 4.91e5 | 4.71e5 | inactive |
| CycD | 3 | – | – | – | – | inactive |
| CG31010 | 1 | 1.37e6 | 6.14e5 | 2.76e6 | 7.54e5 | inactive |
| CG32152 | 1 | 5.65e5 | 1.07e6 | 6.38e5 | 8.21e5 | inactive |
| CG9458 | 1 | 1.33e5 | 1.17e5 | 1.83e6 | 2.02e6 | inactive |
| Pfdn4 | 1 | 2.86e5 | 3.32e5 | 3.15e6 | 3.02e6 | inactive |
| Pfdn4 | 2 | 5.62e5 | 5.13e5 | 6.29e5 | 7.03e5 | inactive |
| CG18284 | 1 | 7.25e5 | 1.04e6 | 2.77e6 | 2.77e6 | inactive |
| CG18284 | 2 | 5.33e5 | 4.69e5 | 8.11e5 | 6.94e5 | inactive |
| CG18284 | 3 | 8.27e5 | 9.38e5 | 9.66e5 | 1.05e6 | inactive |
| rad50 | 1 | 8.68e5 | 5.99e5 | 1.05e6 | 1.04e6 | inactive |
| CG31126 | 1 | 2.09e5 | 2.66e5 | 2.05e6 | 2.65e6 | inactive |
| Nse4 | 1 | 1.63e5 | 2.42e5 | 2.29e6 | 2.15e6 | inactive |
| Nse4 | 2 | 3.96e5 | 6.54e5 | 8.99e5 | 1.61e6 | inactive |
| Naa30A | 1 | 6.21e5 | 6.96e5 | 1.09e6 | 1.21e6 | inactive |
| Naa30A | 2 | 9.17e5 | 8.32e5 | 1.10e6 | 1.02e6 | inactive |
| Arpc3A | 1 | 77490 | 1.01e5 | 1.63e6 | 1.79e6 | inactive |
| Arpc3A | 2 | 4.47e5 | 2.86e5 | 2.02e6 | 1.31e6 | inactive |
| LUBEL | 1 | 2.07e5 | 1.63e5 | 1.48e6 | 1.17e6 | inactive |
| LUBEL | 2 | 6.59e5 | 5.42e5 | 2.00e6 | 1.50e6 | inactive |
